{
  "sequences": {"note": "The chains behind the UniProt entries cited, without tags or fusion partners. Where a name states a change or a piece, a line headed by the entry shows the natural chain unless it says otherwise.", "UniProt P21926": "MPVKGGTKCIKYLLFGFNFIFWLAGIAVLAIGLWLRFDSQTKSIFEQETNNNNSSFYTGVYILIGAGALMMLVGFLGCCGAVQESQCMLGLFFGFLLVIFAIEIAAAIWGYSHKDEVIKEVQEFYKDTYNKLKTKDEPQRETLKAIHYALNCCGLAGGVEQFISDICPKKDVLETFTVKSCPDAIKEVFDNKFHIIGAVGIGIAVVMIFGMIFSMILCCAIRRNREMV", "UniProt Q75N03": "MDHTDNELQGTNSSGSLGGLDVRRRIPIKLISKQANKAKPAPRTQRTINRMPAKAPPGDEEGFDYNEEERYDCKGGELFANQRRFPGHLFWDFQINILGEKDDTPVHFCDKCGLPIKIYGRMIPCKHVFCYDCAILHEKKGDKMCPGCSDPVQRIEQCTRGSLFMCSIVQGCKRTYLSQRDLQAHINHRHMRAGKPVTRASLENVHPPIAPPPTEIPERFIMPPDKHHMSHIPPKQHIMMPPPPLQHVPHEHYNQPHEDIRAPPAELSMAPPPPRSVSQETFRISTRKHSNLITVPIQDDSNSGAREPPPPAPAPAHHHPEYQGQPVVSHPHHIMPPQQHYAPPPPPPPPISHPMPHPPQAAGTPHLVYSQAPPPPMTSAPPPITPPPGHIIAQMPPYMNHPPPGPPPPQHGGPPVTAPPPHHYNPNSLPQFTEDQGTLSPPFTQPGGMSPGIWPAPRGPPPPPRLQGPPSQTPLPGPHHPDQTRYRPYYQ", "UniProt Q92526, whole entry, looked up": "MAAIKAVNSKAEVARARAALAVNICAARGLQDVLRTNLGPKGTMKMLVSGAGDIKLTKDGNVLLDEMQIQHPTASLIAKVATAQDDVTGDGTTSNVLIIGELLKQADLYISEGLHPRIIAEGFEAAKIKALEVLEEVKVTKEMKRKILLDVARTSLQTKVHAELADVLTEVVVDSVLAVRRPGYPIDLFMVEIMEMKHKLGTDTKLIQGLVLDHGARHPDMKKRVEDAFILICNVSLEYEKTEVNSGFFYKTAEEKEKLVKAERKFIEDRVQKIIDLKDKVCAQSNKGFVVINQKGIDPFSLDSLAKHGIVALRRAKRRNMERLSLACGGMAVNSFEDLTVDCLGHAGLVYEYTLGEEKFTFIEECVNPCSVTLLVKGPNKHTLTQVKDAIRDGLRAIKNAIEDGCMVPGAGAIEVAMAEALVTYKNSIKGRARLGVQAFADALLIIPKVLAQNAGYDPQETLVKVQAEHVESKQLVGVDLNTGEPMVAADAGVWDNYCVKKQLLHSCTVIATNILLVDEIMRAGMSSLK", "UniProt Q9HC52": "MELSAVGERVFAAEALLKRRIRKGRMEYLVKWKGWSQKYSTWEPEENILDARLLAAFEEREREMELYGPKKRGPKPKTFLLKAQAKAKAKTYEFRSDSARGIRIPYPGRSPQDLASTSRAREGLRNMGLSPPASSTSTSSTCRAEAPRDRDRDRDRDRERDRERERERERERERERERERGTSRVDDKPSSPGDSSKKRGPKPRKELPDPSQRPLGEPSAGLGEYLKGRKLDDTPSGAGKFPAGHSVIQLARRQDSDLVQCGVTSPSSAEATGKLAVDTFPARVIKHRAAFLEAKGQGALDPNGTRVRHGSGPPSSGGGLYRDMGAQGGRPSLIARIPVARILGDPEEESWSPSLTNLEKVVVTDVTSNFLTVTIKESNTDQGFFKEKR", "UniProt O15234, whole entry, looked up": "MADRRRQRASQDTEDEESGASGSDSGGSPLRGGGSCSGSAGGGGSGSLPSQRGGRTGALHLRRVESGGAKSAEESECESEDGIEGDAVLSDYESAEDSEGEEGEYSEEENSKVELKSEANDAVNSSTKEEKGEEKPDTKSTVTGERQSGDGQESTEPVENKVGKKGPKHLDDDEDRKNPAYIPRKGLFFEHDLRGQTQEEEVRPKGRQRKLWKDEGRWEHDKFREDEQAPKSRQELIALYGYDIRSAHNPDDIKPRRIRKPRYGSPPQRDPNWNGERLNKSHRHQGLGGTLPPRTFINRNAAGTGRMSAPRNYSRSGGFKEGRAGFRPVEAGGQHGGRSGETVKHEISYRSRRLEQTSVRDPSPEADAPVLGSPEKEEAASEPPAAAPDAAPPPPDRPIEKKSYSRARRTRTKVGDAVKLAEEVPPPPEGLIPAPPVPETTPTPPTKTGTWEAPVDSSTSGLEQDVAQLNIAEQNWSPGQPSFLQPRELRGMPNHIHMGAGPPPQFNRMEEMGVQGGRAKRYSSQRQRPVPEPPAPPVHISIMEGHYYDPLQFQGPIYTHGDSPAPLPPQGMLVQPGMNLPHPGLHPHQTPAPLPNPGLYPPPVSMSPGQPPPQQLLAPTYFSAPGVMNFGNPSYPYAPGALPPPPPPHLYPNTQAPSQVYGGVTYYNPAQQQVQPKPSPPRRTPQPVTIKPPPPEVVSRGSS", "UniProt P30279, whole entry, looked up": "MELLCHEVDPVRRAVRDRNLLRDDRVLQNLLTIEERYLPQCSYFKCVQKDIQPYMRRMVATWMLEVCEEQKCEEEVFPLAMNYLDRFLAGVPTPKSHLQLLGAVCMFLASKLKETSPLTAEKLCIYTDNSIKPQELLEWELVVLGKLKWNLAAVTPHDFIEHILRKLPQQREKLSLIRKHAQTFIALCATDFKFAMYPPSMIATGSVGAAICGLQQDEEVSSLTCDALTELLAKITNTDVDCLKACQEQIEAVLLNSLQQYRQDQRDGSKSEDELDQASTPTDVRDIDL", "UniProt P55211": "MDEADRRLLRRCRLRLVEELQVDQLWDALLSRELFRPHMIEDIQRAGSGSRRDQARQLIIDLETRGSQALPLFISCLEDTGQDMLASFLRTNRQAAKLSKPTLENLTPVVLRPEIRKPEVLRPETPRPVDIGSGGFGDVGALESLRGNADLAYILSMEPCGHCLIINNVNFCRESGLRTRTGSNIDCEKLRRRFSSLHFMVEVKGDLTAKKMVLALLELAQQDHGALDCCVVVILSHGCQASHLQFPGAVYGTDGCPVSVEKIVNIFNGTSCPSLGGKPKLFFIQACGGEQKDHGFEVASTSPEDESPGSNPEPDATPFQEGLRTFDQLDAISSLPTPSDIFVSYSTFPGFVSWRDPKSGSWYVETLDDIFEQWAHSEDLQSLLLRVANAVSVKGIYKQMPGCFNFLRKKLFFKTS", "UniProt Q8N9Z2": "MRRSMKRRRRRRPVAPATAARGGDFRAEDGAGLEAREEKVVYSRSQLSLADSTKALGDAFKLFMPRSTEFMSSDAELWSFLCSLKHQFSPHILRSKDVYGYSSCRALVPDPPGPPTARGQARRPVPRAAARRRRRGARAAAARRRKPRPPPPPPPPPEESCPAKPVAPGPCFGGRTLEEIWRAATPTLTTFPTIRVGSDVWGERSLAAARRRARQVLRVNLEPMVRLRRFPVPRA", "UniProt Q9HA77": "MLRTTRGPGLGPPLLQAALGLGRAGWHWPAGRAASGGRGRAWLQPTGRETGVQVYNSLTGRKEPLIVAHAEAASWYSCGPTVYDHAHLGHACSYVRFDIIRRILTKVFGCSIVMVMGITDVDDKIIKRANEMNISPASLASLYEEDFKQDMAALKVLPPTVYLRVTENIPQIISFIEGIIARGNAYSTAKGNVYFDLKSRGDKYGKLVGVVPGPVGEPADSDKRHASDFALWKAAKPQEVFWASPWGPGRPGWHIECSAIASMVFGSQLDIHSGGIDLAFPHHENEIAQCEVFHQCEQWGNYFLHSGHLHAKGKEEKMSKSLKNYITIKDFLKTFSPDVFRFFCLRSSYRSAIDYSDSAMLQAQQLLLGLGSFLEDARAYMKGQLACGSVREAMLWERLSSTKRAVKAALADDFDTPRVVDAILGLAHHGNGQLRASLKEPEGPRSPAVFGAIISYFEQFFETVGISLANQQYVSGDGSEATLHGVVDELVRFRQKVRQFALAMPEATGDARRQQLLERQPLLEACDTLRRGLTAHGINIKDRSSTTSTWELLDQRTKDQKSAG", "UniProt P14209": "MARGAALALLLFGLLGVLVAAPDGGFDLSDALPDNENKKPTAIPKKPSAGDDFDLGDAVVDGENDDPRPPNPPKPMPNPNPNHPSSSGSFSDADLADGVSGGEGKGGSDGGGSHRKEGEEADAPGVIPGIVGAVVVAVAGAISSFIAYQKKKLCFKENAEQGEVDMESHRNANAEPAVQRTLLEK", "UniProt P16070": "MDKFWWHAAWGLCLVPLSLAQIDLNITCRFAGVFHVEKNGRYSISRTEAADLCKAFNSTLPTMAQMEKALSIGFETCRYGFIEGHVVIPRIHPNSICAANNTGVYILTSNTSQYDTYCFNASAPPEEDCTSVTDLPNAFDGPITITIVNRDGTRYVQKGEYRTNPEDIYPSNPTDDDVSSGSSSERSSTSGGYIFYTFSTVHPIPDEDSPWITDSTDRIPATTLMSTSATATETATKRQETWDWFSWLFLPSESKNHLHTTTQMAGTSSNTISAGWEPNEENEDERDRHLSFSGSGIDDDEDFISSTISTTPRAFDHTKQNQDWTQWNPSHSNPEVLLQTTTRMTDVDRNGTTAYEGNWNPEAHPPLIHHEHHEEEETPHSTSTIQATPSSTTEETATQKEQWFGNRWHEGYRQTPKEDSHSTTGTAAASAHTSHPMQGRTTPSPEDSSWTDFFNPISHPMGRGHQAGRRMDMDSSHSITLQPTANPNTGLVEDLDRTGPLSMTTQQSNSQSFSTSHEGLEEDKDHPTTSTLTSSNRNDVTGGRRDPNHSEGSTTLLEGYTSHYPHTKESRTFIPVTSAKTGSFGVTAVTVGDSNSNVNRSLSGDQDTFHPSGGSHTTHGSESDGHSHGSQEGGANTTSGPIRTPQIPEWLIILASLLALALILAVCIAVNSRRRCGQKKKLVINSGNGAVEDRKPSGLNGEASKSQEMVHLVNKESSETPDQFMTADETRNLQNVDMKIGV", "UniProt O95400": "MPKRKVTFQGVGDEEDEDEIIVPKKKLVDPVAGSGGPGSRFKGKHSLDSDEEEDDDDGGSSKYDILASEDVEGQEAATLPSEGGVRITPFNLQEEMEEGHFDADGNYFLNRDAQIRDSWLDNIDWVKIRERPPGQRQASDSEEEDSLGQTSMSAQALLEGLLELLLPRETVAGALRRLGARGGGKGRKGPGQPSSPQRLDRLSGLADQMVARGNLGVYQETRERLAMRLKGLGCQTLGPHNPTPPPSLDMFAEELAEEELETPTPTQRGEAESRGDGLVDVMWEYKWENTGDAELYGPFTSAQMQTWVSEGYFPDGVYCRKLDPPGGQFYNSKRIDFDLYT", "UniProt Q7Z3E2": "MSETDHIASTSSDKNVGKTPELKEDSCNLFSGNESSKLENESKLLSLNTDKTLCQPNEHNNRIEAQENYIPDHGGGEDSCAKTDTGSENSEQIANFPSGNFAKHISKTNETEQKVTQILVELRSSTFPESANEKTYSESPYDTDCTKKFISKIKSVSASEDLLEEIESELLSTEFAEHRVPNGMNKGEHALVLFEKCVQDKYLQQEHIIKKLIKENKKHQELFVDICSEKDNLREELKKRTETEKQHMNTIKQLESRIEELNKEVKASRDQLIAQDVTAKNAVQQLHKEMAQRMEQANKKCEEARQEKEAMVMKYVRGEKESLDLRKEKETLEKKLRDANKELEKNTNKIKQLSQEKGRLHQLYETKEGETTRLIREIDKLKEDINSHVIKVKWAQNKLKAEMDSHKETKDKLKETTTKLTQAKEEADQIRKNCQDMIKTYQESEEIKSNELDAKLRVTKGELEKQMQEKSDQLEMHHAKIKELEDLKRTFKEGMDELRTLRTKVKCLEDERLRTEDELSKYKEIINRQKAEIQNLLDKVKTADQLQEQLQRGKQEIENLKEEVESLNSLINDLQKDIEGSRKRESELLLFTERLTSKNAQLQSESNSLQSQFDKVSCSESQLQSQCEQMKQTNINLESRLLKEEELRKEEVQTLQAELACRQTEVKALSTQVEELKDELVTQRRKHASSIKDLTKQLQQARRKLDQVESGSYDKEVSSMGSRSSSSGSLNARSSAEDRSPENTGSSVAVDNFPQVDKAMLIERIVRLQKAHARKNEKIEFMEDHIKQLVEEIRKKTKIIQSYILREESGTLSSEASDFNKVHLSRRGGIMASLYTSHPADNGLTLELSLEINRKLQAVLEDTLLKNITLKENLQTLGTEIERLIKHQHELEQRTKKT", "UniProt P24864, whole entry, looked up": "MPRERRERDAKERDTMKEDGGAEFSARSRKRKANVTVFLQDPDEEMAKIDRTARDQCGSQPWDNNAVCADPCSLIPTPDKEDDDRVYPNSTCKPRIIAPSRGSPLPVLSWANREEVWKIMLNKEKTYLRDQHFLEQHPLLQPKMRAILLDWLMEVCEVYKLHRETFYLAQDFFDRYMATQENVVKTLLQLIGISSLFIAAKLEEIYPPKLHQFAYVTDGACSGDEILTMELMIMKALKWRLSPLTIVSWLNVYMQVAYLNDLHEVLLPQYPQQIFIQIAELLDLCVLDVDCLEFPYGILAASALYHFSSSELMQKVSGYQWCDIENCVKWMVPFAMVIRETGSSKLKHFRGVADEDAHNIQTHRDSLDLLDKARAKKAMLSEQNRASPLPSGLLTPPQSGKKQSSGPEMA", "UniProt P51636": "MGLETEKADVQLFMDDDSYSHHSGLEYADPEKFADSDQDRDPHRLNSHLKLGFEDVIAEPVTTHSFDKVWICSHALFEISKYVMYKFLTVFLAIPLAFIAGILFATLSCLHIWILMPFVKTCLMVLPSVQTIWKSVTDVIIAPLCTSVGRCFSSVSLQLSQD"},
  "source": "the supplement of paper PMC10849652",
  "note": "This is one part of the list.",
  "data": [
    {"compound": "CC1=C(SC2=C1C(=N[C@H](C3=NN=C(N32)C)CC(=O)N)C4=CC=C(C=C4)Cl)C", "test": "log2 fold change, soluble protein after heating vs DMSO (PISA); higher = thermal stabilisation; K562 cells, 10 uM, 30 min; active = over 0.2 and 3.5 SD of the protein, either way, in both replicates (recomputed)", "outline": "(§1)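 K562 cells at 2×10^6 cells/mL were treated with 10 μM compound for 30 min. Aliquots were heated for 3 min across 48°C-58°C, pooled, and extracted in PBS with 0.5% NP-40 at 4°C; soluble protein was the supernatant after 21,000xg for 90 min. Soluble protein was quantified by TMTpro 16plex LC-MS/MS with channel sums equalised, and reported as log2 fold change in thermal stability against DMSO controls, with values from duplicates.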", "values": [
      {"target": "CD9 (UniProt P21926)", "log2 fold change": "inactive: 0.111"},
      {"target": "CCNYL1 (UniProt Q8N7R7)", "log2 fold change": "inactive: -0.047"},
      {"target": "CD80 (UniProt P33681)", "log2 fold change": "inactive: 0.046"},
      {"target": "CAV1 (UniProt F8WDM7)", "log2 fold change": "inactive: 0.184"},
      {"target": "CDC25C (UniProt P30307)", "log2 fold change": "inactive: -0.354"},
      {"target": "CBLL1 (UniProt Q75N03)", "log2 fold change": "inactive: -0.062"},
      {"target": "CCT6B isoform 3 (UniProt Q92526)", "log2 fold change": "inactive: 0.433"},
      {"target": "CCNC (UniProt P24863)", "log2 fold change": "inactive: -0.172"},
      {"target": "CBX8 (UniProt Q9HC52)", "log2 fold change": "inactive: -0.592"},
      {"target": "CD69 (UniProt Q07108)", "log2 fold change": "inactive: 0.052"},
      {"target": "CCDC158 (UniProt Q5M9N0)", "log2 fold change": "inactive: -0.095"},
      {"target": "CASC3 (UniProt O15234)", "log2 fold change": "inactive: 0.044"},
      {"target": "CCND2 (UniProt P30279)", "log2 fold change": "inactive: 0"},
      {"target": "CASP9 (UniProt P55211)", "log2 fold change": "inactive: -0.045"},
      {"target": "CCDC71L isoform 2 (UniProt Q8N9Z2)", "log2 fold change": "inactive: -0.089"},
      {"target": "CARS2 (UniProt Q9HA77)", "log2 fold change": "inactive: 0.004"},
      {"target": "CCDC175 (UniProt P0C221)", "log2 fold change": "inactive: 0.106"},
      {"target": "CDC27 (UniProt G5EA36)", "log2 fold change": "inactive: -0.146"},
      {"target": "CD84 (UniProt Q9UIB8)", "log2 fold change": "inactive: 0.167"},
      {"target": "CDC37 (UniProt K7EL68)", "log2 fold change": "inactive: 0.13"},
      {"target": "CD99 (UniProt P14209)", "log2 fold change": "inactive: -0.102"},
      {"target": "CCDC167 (UniProt Q9P0B6)", "log2 fold change": "inactive: -0.037"},
      {"target": "CCDC102A (UniProt Q96A19)", "log2 fold change": "inactive: 0.059"},
      {"target": "CDC25B isoform 4 (UniProt P30305)", "log2 fold change": "inactive: 0.009"},
      {"target": "CD44 (UniProt P16070)", "log2 fold change": "inactive: -0.04"},
      {"target": "CD164 (UniProt Q04900)", "log2 fold change": "inactive: 0.033"}
    ]},
    {"compound": "CC1=C2C(=CC=C1)N=C(N(C2=O)C3=CC=CC=C3C)CN4C=NC5=C(N=CN=C54)N", "test": "log2 fold change, soluble protein after heating vs DMSO (PISA); higher = thermal stabilisation; K562 cells, 10 uM, 30 min; active = over 0.2 and 3.5 SD of the protein, either way, in both replicates (recomputed)", "outline": "as §1", "values": [
      {"target": "CD2BP2 (UniProt O95400)", "log2 fold change": "inactive: -0.212"},
      {"target": "CBLL1 (UniProt Q75N03)", "log2 fold change": "inactive: 0.268"},
      {"target": "CCT6B isoform 3 (UniProt Q92526)", "log2 fold change": "inactive: 0.058"},
      {"target": "CCNC (UniProt P24863)", "log2 fold change": "inactive: 0.01"},
      {"target": "CCDC186 (UniProt Q7Z3E2)", "log2 fold change": "inactive: -0.073"},
      {"target": "CD69 (UniProt Q07108)", "log2 fold change": "inactive: -0.083"},
      {"target": "CCDC158 (UniProt Q5M9N0)", "log2 fold change": "inactive: -0.003"},
      {"target": "CD37 (UniProt P11049)", "log2 fold change": "inactive: 0.123"},
      {"target": "CDADC1 (UniProt Q9BWV3)", "log2 fold change": "inactive: -0.047"},
      {"target": "CCNE1 (UniProt P24864)", "log2 fold change": "inactive: -0.049"},
      {"target": "CASC3 (UniProt O15234)", "log2 fold change": "inactive: 0.015"},
      {"target": "CASP8 isoform 9 (UniProt Q14790)", "log2 fold change": "inactive: 0.052"},
      {"target": "CASP9 (UniProt P55211)", "log2 fold change": "inactive: 0.102"},
      {"target": "CARS2 (UniProt Q9HA77)", "log2 fold change": "inactive: 0.056"},
      {"target": "CCDC175 (UniProt P0C221)", "log2 fold change": "inactive: 0.069"},
      {"target": "CDC37 (UniProt K7EL68)", "log2 fold change": "inactive: 0.056"},
      {"target": "CD99 (UniProt P14209)", "log2 fold change": "inactive: 0.028"},
      {"target": "CCDC28B (UniProt Q9BUN5)", "log2 fold change": "inactive: -0.009"},
      {"target": "CCDC102A (UniProt Q96A19)", "log2 fold change": "inactive: -0.078"},
      {"target": "CD33 (UniProt P20138)", "log2 fold change": "inactive: 0.057"},
      {"target": "CDC25B isoform 4 (UniProt P30305)", "log2 fold change": "inactive: 0.101"},
      {"target": "CD44 (UniProt P16070)", "log2 fold change": "inactive: 0.046"},
      {"target": "CD109 (UniProt Q6YHK3)", "log2 fold change": "inactive: -0.118"},
      {"target": "CD164 (UniProt Q04900)", "log2 fold change": "inactive: -0.007"},
      {"target": "CD46 (UniProt P15529)", "log2 fold change": "inactive: 0.026"}
    ]},
    {"compound": "Cc1sc2c(c1C)C(c1ccc(Cl)cc1)=N[C@@H](CC(=O)OC(C)(C)C)c1nnc(C)n1-2", "test": "log2 fold change, soluble protein after heating vs DMSO (PISA); higher = thermal stabilisation; K562 cells, 10 uM, 30 min; active = over 0.2 and 3.5 SD of the protein, either way, in both replicates (recomputed)", "outline": "as §1", "values": [
      {"target": "CD9 (UniProt P21926)", "log2 fold change": "inactive: -0.126"},
      {"target": "CCNT2 (UniProt O60583)", "log2 fold change": "inactive: 0.061"},
      {"target": "CD80 (UniProt P33681)", "log2 fold change": "inactive: 0"},
      {"target": "CD2BP2 (UniProt O95400)", "log2 fold change": "inactive: 0.199"},
      {"target": "CDC25C (UniProt P30307)", "log2 fold change": "inactive: 0.105"},
      {"target": "CBLL1 (UniProt Q75N03)", "log2 fold change": "inactive: -0.044"},
      {"target": "CCT6B isoform 3 (UniProt Q92526)", "log2 fold change": "inactive: -0.026"},
      {"target": "CD37 (UniProt P11049)", "log2 fold change": "inactive: 0.151"},
      {"target": "CCNE1 (UniProt P24864)", "log2 fold change": "inactive: -0.033"},
      {"target": "CASC3 (UniProt O15234)", "log2 fold change": "inactive: 0.244"},
      {"target": "CASP8 isoform 9 (UniProt Q14790)", "log2 fold change": "inactive: 0.033"},
      {"target": "CASP9 (UniProt P55211)", "log2 fold change": "inactive: 0.05"},
      {"target": "CCDC71L isoform 2 (UniProt Q8N9Z2)", "log2 fold change": "inactive: 0.238"},
      {"target": "CARS2 (UniProt Q9HA77)", "log2 fold change": "inactive: -0.016"},
      {"target": "CDC27 (UniProt G5EA36)", "log2 fold change": "inactive: 0.021"},
      {"target": "CD84 (UniProt Q9UIB8)", "log2 fold change": "inactive: -0.079"},
      {"target": "CD99 (UniProt P14209)", "log2 fold change": "inactive: -0.115"},
      {"target": "CCDC28B (UniProt Q9BUN5)", "log2 fold change": "inactive: 0.03"},
      {"target": "CCDC167 (UniProt Q9P0B6)", "log2 fold change": "inactive: -0.124"},
      {"target": "CD33 (UniProt P20138)", "log2 fold change": "inactive: 0.046"},
      {"target": "CAV2 (UniProt P51636)", "log2 fold change": "inactive: -0.046"},
      {"target": "CD44 (UniProt P16070)", "log2 fold change": "inactive: -0.026"}
    ]}
  ]
}
